PubChem BioAssay AID1347076 (National Center for Advancing Translational Sciences (NCATS), 2019)
The campaign covered roughly 400,000 compounds. About 13,000 (3.2%) were called active. Inconclusive means that the source gave no clear call. Such entries were picked first, then a sample of the others. Calls follow the shape of the dose curve; as a rule, active = well fitted cell-killing curve with a large enough effect; inconclusive = small, poorly fitted or top-dose-only effect, or effect the other way; inactive = flat fitted curve, though single readings scatter. Potencies of inconclusive entries are doubtful fits and often do not repeat.

Assay: qHTS assay for MDR1-selective chemotherapeutics: Primary screen using the drug-selected MDR subline cells KB-V1; also: nearly all actives have a fitted effect of over 60% in size
Conditions: KB-V1 MDR cells viability, CellTiter-Glo, 72 h; activity change, negative = cytotoxicity: at 46.1 µM (top of the series)
Outline: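 Luminescent ATP read-out (CellTiter-Glo, 10 min) measures survival of drug-selected KB-V1 MDR cells after 72 h, 37 degrees C compound exposure. Medium: phenol-red-free DMEM, 10% FBS. Values from fitted concentration-response curves.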
% is scaled to controls: 0 for no effect and ±100 for the full control effect; potency is read from the fitted curve at half-maximal effect.

Row | SMILES | Potency | activity change, negative = cytotoxicity
1 | COc1ccc(C(=O)OCc2cc(=O)n3c(C)csc3n2)cc1F | inconclusive: 23.1 µM [cytotoxic, single point] | –
2 | O=C(Nc1ccc(Br)cc1)c1ccc(F)c(S(=O)(=O)N2CCN(c3ccccn3)CC2)c1 | inconclusive: 4.11 µM [cytotoxic, full curve, poor fit] | –
3 | Cc1cccc(NC(=O)c2ccc(CN3CCN(Cc4ccccc4)CC3)cc2)c1 | inconclusive: 18.4 µM [cytotoxic, single point] | –
4 | COc1ccc(/C=C2\SC(=S)N(CCC(=O)N3CCCCC3)C2=O)cc1 | – | inactive: 6.62%
5 | CC1(C)CC(NC(=O)COc2ccc([N+](=O)[O-])cc2)CC(C)(C)N1 | – | inactive: 16.6%
6 | COc1ccc(C2C(C(=O)Nc3cc(OC)c(OC)c(OC)c3)c3ccccc3C(=O)N2C)cc1 (stereo not given) | inconclusive: 16.4 µM [cytotoxic, single point] | –
7 | CCOC(=O)C1(C#N)C(=O)CSC1=Nc1ccccc1Cl (stereo not given) | inconclusive: 0.092 µM [rising, full curve, poor fit] | –
8 | Cc1onc(NC(=O)NC(=O)c2c(Cl)cccc2Cl)c1Br | – | inactive: -6.67%
9 | CCOC(=O)[C@]12CCC=C1N(Cc1ccccc1)C(=O)[C@H](CC(=O)NCC13CC4CC(CC(C4)C1)C3)C2 | inconclusive: 9.2 µM [cytotoxic, partial curve] | –
10 | O=C(Nc1c2c(nn1-c1ccccc1)CS(=O)(=O)C2)c1cc2ccccc2o1 | – | inconclusive: -33.4%
11 | Cc1ccc(NC(=O)c2cccc(S(=O)(=O)NCc3ccccc3)c2)nc1 | inconclusive: 23.1 µM [cytotoxic, single point] | –
12 | COc1cccc(CNCCCSc2nnnn2C)c1 | – | inactive: 3.47%
13 | COc1cccc(NC(=O)COc2cccnc2[N+](=O)[O-])c1 | inconclusive: 16.4 µM [rising, single point] | –
14 | CCCOc1cc(C)c(S(=O)(=O)n2ccc(C)n2)cc1C | inconclusive: 20.6 µM [cytotoxic, single point] | –
15 | CCOc1ccc2cc(C#N)c(SCC(=O)OCc3ccccc3)nc2c1 | – | inactive: 24.7%
16 | CCCn1cc(C(=O)OCC)c(=O)c2cc(F)c(F)cc21 | inconclusive: 18.4 µM [cytotoxic, partial curve, poor fit] | –
17 | COc1ccc(/C=C/C(=O)NC(=S)NCCc2ccc(OC)c(OC)c2)cc1 | inconclusive: 16.4 µM [cytotoxic, partial curve, poor fit] | –
18 | O=C(CSc1cccc[n+]1[O-])Nc1c(Br)cc([N+](=O)[O-])cc1Br | – | inconclusive: -9.53%
19 | CC(NC(=O)c1ccc([N+](=O)[O-])cc1[N+](=O)[O-])c1ccc(-c2ccccc2)cc1 (stereo not given) | inconclusive: 20.6 µM [cytotoxic, partial curve, poor fit] | –
20 | COc1ccc(Cn2cc(CN3CC(N4CCN(CCN(C)C)CC4)CS3(=O)=O)nn2)cc1 (stereo not given) | – | inactive: -1.14%
21 | COc1ccc(C(=O)/C=C2/C(=O)Nc3ccccc32)c(OC)c1 | inconclusive: 29.1 µM [cytotoxic, single point] | –
22 | O=C(O)c1cccc(C(=O)c2cccc(C(=O)O)c2)c1 | inconclusive: 29.1 µM [rising, single point] | –
23 | CC(=O)Oc1ccc(N(C(C)=O)S(=O)(=O)c2cccs2)c2ccccc12 | inconclusive: 18.4 µM [cytotoxic, single point] | –

Row | SMILES | Potency | activity change, negative = cytotoxicity
24 | CC(=O)c1ccc(OCC(=O)OCC(=O)c2ccc(S(=O)(=O)N3CCCCC3)cc2)cc1 | – | inactive: -9.24%
25 | CCOc1ccc(C(c2c(NC(=O)c3ccccc3)sc(C)c2C)N2CCN(CCO)CC2)cc1 (stereo not given) | inconclusive: 20.6 µM [cytotoxic, single point] | –
26 | Cc1ccsc1/C=N/Nc1ccc(C(=O)O)cc1 | – | inactive: 18.2%
27 | CC1CCCCN1CCCNc1ccc(C(CC(N)=O)NC(=O)Cc2ccc(Br)cc2)cc1[N+](=O)[O-] (stereo not given) | – | inactive: -6.02%
28 | c1cncc(Nc2nc(-c3ccncc3)cs2)c1 | – | inactive: -18.8%
29 | O=C(Oc1ccc(-c2cnc3ccccc3n2)cc1)c1ccc(Br)o1 | inconclusive: 29.1 µM [cytotoxic, single point] | –
30 | CC(C)c1ccccc1OCC(=O)Nc1ccccc1C(=O)N1CCOCC1 | inconclusive: 16.4 µM [cytotoxic, partial curve, poor fit] | –
31 | CC(C)NC(=O)NC(=O)CSc1ccc(S(=O)(=O)N2CCOCC2)cn1 | – | inactive: -16.2%
32 | Cc1cnc(CNC(=O)CC2C(=O)NCCN2Cc2ccccc2F)cn1 (stereo not given) | inconclusive: 5.8 µM [rising, full curve] | –
33 | O=C(c1nc[nH]c1C(=O)N1CCc2ccccc2C1)N1CCc2ccccc2C1 | – | inactive: -0.913%
34 | CCOC(=O)C1CCN(CCC(=O)Nc2ccc(C)c(C)c2)CC1 | inconclusive: 32.6 µM [rising, single point] | –
35 | N#Cc1ccccc1CSc1nc2ccsc2c(=O)n1Cc1ccccn1 | – | inactive: -17.6%
36 | Cc1ccc(N(CC(=O)NCCSc2nc3ccccc3s2)S(=O)(=O)c2ccccc2)c(C)c1 | active: 8.2 µM | –
37 | O=C(NCc1ccco1)c1cccc(-c2ccc3nccn3c2)c1 | – | inactive: -12.1%
38 | CCc1c(C(=O)Nc2ccc(C)c(C)c2)[nH]c(C)c1C(C)=O | inconclusive: 14.6 µM [cytotoxic, partial curve] | –
39 | COc1ccc(NC(=O)c2sc3nc(Cc4ccccc4)cc(C(F)(F)F)c3c2N)cc1OC | inconclusive: 14.6 µM [cytotoxic, single point] | –
40 | CN(CCc1ccccc1)C(=O)c1cccc(NC(=O)Cc2ccc([N+](=O)[O-])cc2)c1 | inconclusive: 16.4 µM [cytotoxic, single point] | –
41 | CN(Cc1ccccc1)CC(O)COc1ccc(CNCCOc2cccnc2)cc1 (stereo not given) | – | inactive: -13.1%
42 | COc1ccc(NC(=O)CC2Nc3cccc4cccc(c34)NC2=O)cc1 (stereo not given) | – | inactive: 0%
43 | CCOC(=O)N1CCN(S(=O)(=O)c2ccc(C(=O)Nc3nc4ccccc4s3)cc2)CC1 | inconclusive: 2.06 µM [cytotoxic, partial curve, poor fit] | –
44 | CCOc1ccc(NC(=S)Nc2ccc(C)c([N+](=O)[O-])c2)cc1 | active: 16.4 µM | –
45 | CN(Cc1ccccc1)C(=C(Cl)Cl)C(=C1NCCN1)[N+](=O)[O-] | inconclusive: 20.6 µM [rising, partial curve, poor fit] | –

Some of the entries so far, tab-delimited.
Row	SMILES	Potency	activity change, negative = cytotoxicity
27	CC1CCCCN1CCCNc1ccc(C(CC(N)=O)NC(=O)Cc2ccc(Br)cc2)cc1[N+](=O)[O-] (stereo not given)	–	inactive: -6.02%
33	O=C(c1nc[nH]c1C(=O)N1CCc2ccccc2C1)N1CCc2ccccc2C1	–	inactive: -0.913%
